From PubChem BioAssay AID720533 (National Center for Advancing Translational Sciences (NCATS), 2013)
Where “and” joins values, the source holds several entries; their conditions need not be identical. Identical values can stand only once. Hit rate of the full screen: of about 18,000 compounds, about 750 (4.2%) were called active. The inconclusive results got no clear call from the source; some entries with a clear call stand among them for comparison. Calls follow the shape of the full dose curve; tested in HEK293 cells. A potency beside an inconclusive call is a rough fit, not a confirmed value.

Assay: qHTS for Inhibitors of binding or entry into cells for Lassa Virus
Settings: Lassa virus pseudotyped entry inhibition, cell-based qHTS; activity change, negative = inhibition: at 49.2 µM (top of the series) unless noted
% is scaled to controls: 0 for no effect and ±100 for the full control effect; potency is read from the fitted curve at half-maximal effect.

Row | Compound | activity change, negative = inhibition | Potency
1 | C[C@H]1CC[C@H]2C(=O)N[C@H](Cc3ccccc3)C(=O)N2[C@H]1c1ccccc1 | inactive: 9.14% [at 8.59 µM] | 
2 | c1nc[n]([Sn]([CH]2CCCCC2)([CH]2CCCCC2)[CH]2CCCCC2)n1 |  | inconclusive: 22.4 µM [inhibitor, single point]
3 | C=CCN(Cc1ccc([N+](=O)[O-])cc1)S(=O)(=O)C=C | inconclusive: -15.6% [inhibitor] | 
4 | Cc1ccc(C(=O)Nc2cnn(-c3ccc(C(=O)N(C)Cc4n[nH]c5c4CCCC5)cc3)c2)c(C)c1 |  | inconclusive: 35.5 µM [inhibitor, single point]
5 | CNc1cc(OC)c(C(=O)N[C@H]2CCN(Cc3ccccc3)[C@H]2C)cc1Cl |  | inconclusive: 28.2 µM [inhibitor, partial curve]
6 | CCOc1ccccc1-c1ccc(C(=O)NCc2ccc(Cl)cc2)o1 |  | inconclusive: 2.5 µM [inhibitor, full curve, poor fit]
7 | COc1ccccc1C1CN(CC(=O)NCC2OCCc3ccccc32)Cc2ccccc2O1 (configuration not stated) |  | inconclusive: 12.6 µM [inhibitor, partial curve]
8 | O=C(/C=C/c1ccc(O)c(O)c1)OCCc1ccccc1 |  | inconclusive: 14.1 µM [inhibitor, partial curve] and inconclusive: 17.8 µM [inhibitor, partial curve]
9 | [C-]#[N+]c1cc(-c2ccncc2)c(C)[nH]c1=O |  | inconclusive: 35.5 µM [inhibitor, single point]
10 | COc1ccc(-c2ccc3c(NC(=O)C4CC4)n[nH]c3n2)cc1 |  | inactive
11 | CC(NCCC(c1ccccc1)c1ccccc1)c1ccccc1 (configuration not stated) |  | inconclusive: 14.1 µM [inhibitor, partial curve, poor fit]
12 | OC1CCN(Cc2ccc3c(c2)CN(Cc2ccc(Oc4ncccn4)cc2)CCO3)CC1 |  | inactive
13 | CC[C@H](C)[C@H](NC(=O)[C@H](CCCNC(=N)N)NC(=O)[C@@H](NC(=O)[C@H](CCCNC(=N)N)NC(=O)[C@H](CCCCN)NC(=O)[C@H](CCCNC(=N)N)NC(=O)[C@@H](NC(=O)[C@H](CC(N)=O)NC(=O)[C@@H](N)CS)[C@@H](C)O)[C@@H](C)CC)C(=O)N[C@@H](CCC(N)=O)C(=O)N[C@@H](CCCNC(=N)N)C(=O)NCC(=O)N1CCC[C@H]1C(=O)NCC(=O)N[C@@H](CCCNC(=N)N)C(=O)N[C@@H](C)C(=O)N[C@@H](Cc1ccccc1)C(=O)N[C@H](C(=O)N[C@H](C(=O)N[C@H](C(=O)NCC(=O)N[C@@H](CCCCN)C(=O)O)[C@@H](C)CC)[C@@H](C)O)C(C)C |  | inactive
14 | COc1ccc(COc2cc(-c3cccc(OC)c3)nc3ccc(NC(=O)c4ccc(OC)cc4)cc23)cc1 |  | inconclusive: 22.4 µM [inhibitor, single point]
15 | CC1(C)CN(CCc2ccccc2)C(=O)[C@@H]1CC(=O)Nc1ccccc1 |  | inactive
16 | CC1(C)C(O)CC(O)[C@]2(C)C1CC(O)[C@]1(C)C2CC[C@@]2(C)C(c3ccoc3)OC(=O)C3O[C@]312 (some centres not stated) |  | inactive
17 | CCOC(=O)CNC(=O)O[C@@H]1C(=O)c2cc(Br)ccc2O[C@H]1c1ccc2c(c1)OCO2 |  | inactive
18 | COc1cc2c(c(OC)c1OC)-c1ccc(OC)c(=O)cc1[C@@H](NC=O)CC2 |  | inconclusive: 0.0891 µM [inhibitor, full curve, poor fit]
19 | COc1cc2c(cc1C(F)(F)F)N(C(=O)Nc1cc(F)cc(-c3cccnc3)c1)CC2 |  | inconclusive: 28.2 µM [inhibitor, partial curve, poor fit]
20 | O=C(NCc1ccccc1)c1cccc(NC(=O)c2ccccc2)c1 | inconclusive: -38.3% [inhibitor] | 
21 | Cc1cc(-c2ccc(N=Nc3c(S(=O)(=O)O)cc4cc(S(=O)(=O)O)cc(N)c4c3O)c(C)c2)ccc1N=Nc1c(S(=O)(=O)O)cc2cc(S(=O)(=O)O)cc(N)c2c1O |  | inconclusive: 25.1 µM [inhibitor, partial curve]
22 | CN1C(=O)N(C)C2=NNC=NC2(O)C1=O (configuration not stated) |  | inconclusive: 15.8 µM [inhibitor, single point]
23 | COC(=O)C1CCN(Cc2ccc3c(c2)CN(C(=O)c2ncc(C)[nH]2)CCO3)CC1 |  | inactive
24 | CN(C)c1ccc(C(=C2C=CC(=[N+](C)C)C=C2)c2c(O)c(S(=O)(=O)[O-])cc3cc(S(=O)(=O)O)ccc23)cc1 |  | inconclusive: 7.94 µM [inhibitor, full curve]
25 | COCC1CCCN(Cc2ccc3c(c2)CN(C(=O)c2cc(-c4ccccc4)n[nH]2)CCO3)C1 (configuration not stated) |  | inactive
26 | C=CC1=C(C)C2=CC3=NC(=C(CC(=O)[O-])C4=NC(=C(C)C4=C([O-])[O-])C=c4[n-]c(c(C)c4CC)=CC1=N2)C(CCC(=O)[O-])C3C.[Cu+2].[Na+].[Na+].[Na+] (configuration not stated) |  | inconclusive: 28.1 µM [inhibitor, partial curve, poor fit]

Row | Compound | activity change, negative = inhibition | Potency
27 | C=CC1(C)CC(=O)C2(O)C(C)(O1)C(OC(C)=O)C(O)C1C(C)(C)CCC(O)C12C (configuration not stated) |  | inconclusive: 35.5 µM [inhibitor, single point]
28 | Nc1ncnc2c1c(-c1ccc(Oc3ccccc3)cc1)cn2C1CCCC1 |  | inconclusive: 12.6 µM [inhibitor, partial curve]
29 | Cc1ccc(CN2[C@@H](c3ccccc3)COc3c(Cl)cccc3S2(=O)=O)cc1 |  | inconclusive: 14.1 µM [inhibitor, partial curve, poor fit]
30 | COc1cc2c(cc1OC)[C@@H]1O[C@](CCCCN3C(=O)c4ccccc4C3=O)(C2)Oc2cc(C)n(Cc3ccccc3)c(=O)c21 | inactive: 26.3% [at 8.59 µM] | 
31 | O=C(O)C(S)C(S)C(=O)O (configuration not stated) |  | inconclusive: 15.8 µM [inhibitor, partial curve]
32 | COc1cc2c(cc1OC)C(c1ccc(N)cc1)=NNC(=O)C2 |  | inconclusive: 31.6 µM [inhibitor, partial curve] and inconclusive: 20 µM [inhibitor, partial curve, poor fit]
33 | COCCOC(=O)C1=C(C)NC(C)=C(C(=O)OC/C=C/c2ccccc2)C1c1cccc([N+](=O)[O-])c1 (configuration not stated) |  | active: 14.1 µM and active: 12.6 µM
35 | CCCCC/C=C\C[C@@H](/C=C/C=C\C/C=C\CCCC(=O)O)OO | inconclusive: -14.6% [inhibitor] | 
36 | CC(C)(C)C1(O)CCN2CC3c4ccccc4CCc4cccc(c43)C2C1 (configuration not stated) |  | inconclusive: 31.6 µM [inhibitor, partial curve, poor fit]
37 | CC1CC2CCC(O2)C(C)C(=O)OC(C)CC2CCC(O2)C(C)C(=O)OC(C)CC2CCC(O2)C(C)C(=O)OC(C)CC2CCC(O2)C(C)C(=O)O1 (configuration not stated) |  | active: 1 µM
38 | Cc1c(C(=O)N(C)Cc2cscn2)sc2ncnc(NC[C@H]3CCc4ccccc4O3)c12 |  | inconclusive: 20 µM [inhibitor, partial curve, poor fit]
39 | COC(=O)c1ccc(CN2C(=O)[C@@]3(CC(C)=CC[C@@H](COc4ccccc4)O3)c3c(Br)cccc32)cc1 | inconclusive: 7.3% [inhibitor] [at 8.59 µM] | 
40 | Oc1ccc(OCc2ccccc2)cc1 |  | inconclusive: 8.91 µM [inhibitor, partial curve]
41 | CNC(=O)[C@H](Cc1c[nH]c2ccccc12)NC(=O)[C@@H](CC(=O)NO)CC(C)C |  | inconclusive: 35.5 µM [inhibitor, partial curve] and inconclusive: 35.5 µM [inhibitor, partial curve, poor fit]
42 | COc1ccc(OC)c(-c2ccc(O)c(CN3CCc4c([nH]c5ccccc45)C3)c2)c1 |  | inconclusive: 35.5 µM [inhibitor, single point]
43 | COP(=S)(OC)Oc1ccc(S(N)(=O)=O)cc1 |  | inactive
44 | CO[C@@]12[C@H](COC(N)=O)C3=C(C(=O)C(C)=C(N)C3=O)N1C[C@@H]1N[C@@H]12 |  | inconclusive: 2.24 µM [inhibitor, full curve]
45 | C#C[C@@]1(O)CCC2C3CCc4cc(O)ccc4C3CC[C@@]21C (some centres not stated) |  | inconclusive: 35.5 µM [inhibitor, single point]
46 | CN(Cc1ccc2c(c1)CN(C(=O)c1cccc(N(C)C)c1)CCO2)Cc1cc(C2CC2)n[nH]1 |  | inactive
47 | OC[C@H]1O[C@@H](n2cnc3c(NCc4ccco4)ncnc32)[C@H](O)[C@@H]1O |  | inconclusive: 10 µM [inhibitor, full curve]
48 | N[C@@]1(C(=O)O)CN[C@H](C(=O)O)C1 |  | inactive
49 | C[C@@H](c1ccccc1)N1C(=O)[C@@H]2[C@H]3[C@H](O)[C@H](O)CC(=NNC(=O)OCc4ccccc4)[C@@H]3CC[C@H]2C1=O | inactive: -28.1% [at 8.59 µM] | 
50 | CCCCCCCC/C=C/CCCCCCCCOP(=O)([O-])OCC[N+](C)(C)C |  | inactive
51 | COc1ccc2c(c1)CCc1cnc(-n3ncc(C(=O)NC4CCOC4)c3C3CC3)nc1-2 (configuration not stated) |  | inconclusive: 20 µM [inhibitor, partial curve, poor fit]
52 | CCC1CN(CCNC(=O)c2cccnc2OC)Cc2cc(OC)ccc2O1 (configuration not stated) |  | inconclusive: 35.5 µM [inhibitor, single point]
